{
  "source": "patent US20220096515A1",
  "about": "“Methods and Formulations for Preventing Neurological or Psychiatric Disorders” (Huntington Medical Research Institutes, priority 2020, published 2022)",
  "origin": "cited, not measured here",
  "conditions": "cited from earlier work",
  "note": "At least one structure is not confirmed: it was looked up by name or label, or the drawing left a doubt.",
  "data": [
    {"smiles": "NC(=O)c1ccc[n+]([C@@H]2O[C@H](COP(=O)([O-])OP(=O)(O)OC[C@H]3O[C@@H](n4cnc5c(N)ncnc54)[C@H](O)[C@@H]3O)[C@@H](O)[C@H]2O)c1", "note": "[NAD^+]", "values": [
      {"measurement": "crossing of utero-placental barrier", "result": "able to cross the utero-placental barrier"}
    ]}
  ]
}
